These are yes or no findings as the source states them, for the method shown. In cells and extracts the contact can be indirect. Some entries that bind do so weakly or less than the wild type. Tags and fused reporters may be left off the sequences shown.

In this assay the target is T1, Myc-CDC25C (UniProt P30307).
T1 sequence: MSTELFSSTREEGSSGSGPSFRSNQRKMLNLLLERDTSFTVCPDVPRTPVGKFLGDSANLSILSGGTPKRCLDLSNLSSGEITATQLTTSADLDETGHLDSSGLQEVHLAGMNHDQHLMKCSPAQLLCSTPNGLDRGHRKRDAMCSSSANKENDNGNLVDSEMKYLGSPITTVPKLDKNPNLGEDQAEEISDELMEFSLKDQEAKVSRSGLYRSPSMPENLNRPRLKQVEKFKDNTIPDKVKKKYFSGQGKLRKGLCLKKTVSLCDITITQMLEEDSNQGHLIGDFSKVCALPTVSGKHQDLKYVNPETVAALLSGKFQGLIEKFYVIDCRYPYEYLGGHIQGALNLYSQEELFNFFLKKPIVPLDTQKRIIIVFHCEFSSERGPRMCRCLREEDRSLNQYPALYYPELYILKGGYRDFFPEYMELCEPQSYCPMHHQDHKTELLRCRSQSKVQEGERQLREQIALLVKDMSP
The assay is described as follows: co-IP; extracts of IGR-CaP1 cells transfected with Myc-CDC25C (pCMV-CDC25C), 48h after transfection; immunoprecipitated with anti-CDC25C, immunoblotted with LZTS1 antibody. A general note: Immunoblotting shows a protein as a band on a membrane.

B1: LZTS1 (protein, UniProt Q9Y250 1-596)
chain: MGSVSSLISGHSFHSKHCRASQYKLRKSSHLKKLNRYSDGLLRFGFSQDSGHGKSSSKMGKSEDFFYIKVSQKARGSHHPDYTALSSGDLGGQAGVDFDPSTPPKLMPFSNQLEMGSEKGAVRPTAFKPVLPRSGAILHSSPESASHQLHPAPPDKPKEQELKPGLCSGALSDSGRNSMSSLPTHSTSSSYQLDPLVTPVGPTSRFGGSAHNITQGIVLQDSNMMSLKALSFSDGGSKLGHSNKADKGPSCVRSPISTDECSIQELEQKLLEREGALQKLQRSFEEKELASSLAYEERPRRCRDELEGPEPKGGNKLKQASQKSQRAQQVLHLQVLQLQQEKRQLRQELESLMKEQDLLETKLRSYEREKTSFGPALEETQWEVCQKSGEISLLKQQLKESQTEVNAKASEILGLKAQLKDTRGKLEGLELRTQDLEGALRTKGLELEVCENELQRKKNEAELLREKVNLLEQELQELRAQAALARDMGPPTFPEDVPALQRELERLRAELREERQGHDQMSSGFQHERLVWKEEKEKVIQYQKQLQQSYVAMYQRNQRLEKALQQLARGDSAGEPLEVDLEGADIPYEDIIATEI
In the case of B1, the binding entry is on record as “binds”.

The values are drawn from publication PMC3996665.
